Values joined by “and” are separate entries in the source; they are usually repeats but may differ in a detail not shown here. Equal entries are not always repeated. The list shows a part of the results. For some assays here: The exact form of the protein is not confirmed.
Key:
Experiment in all cases: protein microarray (ProtoArray v5.0), streptavidin-Alexa Fluor 647
Details in all cases: 3'-biotin; 20 mM Tris (pH 7.5), 5 mM MgCl2, 100 mM KCl, 0.1% Tween-20, A/T-rich and random oligonucleotide blockers; temperature not stated; high values mean tight binding
[1] = target: T1, BATF2 (UniProt Q8N1L9)
T1 sequence: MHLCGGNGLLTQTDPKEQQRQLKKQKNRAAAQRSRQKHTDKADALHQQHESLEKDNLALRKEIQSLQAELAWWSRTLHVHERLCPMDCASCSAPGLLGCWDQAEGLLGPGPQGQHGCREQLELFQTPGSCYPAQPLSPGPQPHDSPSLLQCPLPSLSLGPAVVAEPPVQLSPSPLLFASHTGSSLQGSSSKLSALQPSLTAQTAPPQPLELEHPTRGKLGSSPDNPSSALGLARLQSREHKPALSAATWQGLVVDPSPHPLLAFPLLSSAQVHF

[2] = system: BBS2 (human)
[3] = system: BBS7 (human)
[4] = system: BCAR3 (human)
[5] = target: BCKDK (UniProt O14874)
[6] = system: BCL2A1 (human)
[7] = system: BCL2L11 (human)
[8] = system: BCL2L13 (human)
[9] = system: BHMT2 (human)
[10] = system: BID (human)
[11] = target: T2, BIN1 (UniProt O00499)
T2 sequence: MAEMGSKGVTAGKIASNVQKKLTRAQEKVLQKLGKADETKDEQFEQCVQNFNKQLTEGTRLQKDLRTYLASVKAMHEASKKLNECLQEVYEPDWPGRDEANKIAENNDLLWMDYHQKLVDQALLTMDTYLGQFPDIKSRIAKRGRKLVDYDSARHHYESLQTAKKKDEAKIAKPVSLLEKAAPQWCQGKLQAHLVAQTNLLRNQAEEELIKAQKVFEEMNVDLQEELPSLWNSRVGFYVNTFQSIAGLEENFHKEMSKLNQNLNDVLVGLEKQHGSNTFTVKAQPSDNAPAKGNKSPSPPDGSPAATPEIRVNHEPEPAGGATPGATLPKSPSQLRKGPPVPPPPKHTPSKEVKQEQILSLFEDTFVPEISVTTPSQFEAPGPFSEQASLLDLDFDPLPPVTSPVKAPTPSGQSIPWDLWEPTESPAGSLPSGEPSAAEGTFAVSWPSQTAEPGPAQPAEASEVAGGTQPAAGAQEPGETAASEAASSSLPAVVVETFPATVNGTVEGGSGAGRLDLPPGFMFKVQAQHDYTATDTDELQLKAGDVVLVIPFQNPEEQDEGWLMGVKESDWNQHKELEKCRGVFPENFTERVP

[12] = system: BIRC5 (human)
[13] = system: BIRC7 (human)
[14] = system: BLVRB (human)
[15] = system: BMF (human)
[16] = target: BRD3 (UniProt Q15059)
[17] = system: BRD9 (human)
[18] = target: T3, BSG (UniProt P35613)
T3 sequence: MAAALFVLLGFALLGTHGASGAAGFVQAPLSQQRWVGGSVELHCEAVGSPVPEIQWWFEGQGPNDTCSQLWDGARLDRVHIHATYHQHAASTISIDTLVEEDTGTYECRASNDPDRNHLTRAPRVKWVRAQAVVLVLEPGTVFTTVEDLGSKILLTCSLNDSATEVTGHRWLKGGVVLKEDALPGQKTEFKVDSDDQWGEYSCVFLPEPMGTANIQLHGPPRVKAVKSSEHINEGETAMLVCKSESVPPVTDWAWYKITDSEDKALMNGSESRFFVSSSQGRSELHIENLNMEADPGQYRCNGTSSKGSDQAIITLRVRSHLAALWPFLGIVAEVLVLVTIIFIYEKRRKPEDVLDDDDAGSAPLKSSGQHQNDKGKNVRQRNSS

[19] = system: BTG2 (human)
[20] = target: T4, BUD31 (UniProt P41223)
T4 sequence: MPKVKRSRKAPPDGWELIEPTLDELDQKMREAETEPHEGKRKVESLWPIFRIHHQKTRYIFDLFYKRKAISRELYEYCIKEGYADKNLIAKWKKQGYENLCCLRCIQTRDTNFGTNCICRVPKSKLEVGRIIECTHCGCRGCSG

GGGGACAGGGGTATGGGGAGGGG [G4-3 biotinylated (CtG)]
binding signal [1]: -0.332 z-score | binding signal [2]: -0.319 z-score | binding signal [3]: -0.327 z-score | binding signal [4]: -0.333 z-score | binding signal [5]: -0.308 z-score | binding signal [6]: -0.325 z-score | binding signal [7]: -0.349 z-score | binding signal [8]: -0.338 z-score | binding signal [9]: -0.321 z-score | binding signal [10]: -0.335 z-score and -0.314 z-score | binding signal [11]: -0.332 z-score and -0.328 z-score | binding signal [12]: -0.333 z-score | binding signal [13]: -0.325 z-score | binding signal [14]: -0.316 z-score | binding signal [15]: -0.337 z-score and -0.336 z-score | binding signal [16]: 4.51 z-score | binding signal [17]: -0.335 z-score | binding signal [18]: -0.303 z-score | binding signal [19]: -0.32 z-score | binding signal [20]: 3.1 z-score

Source: article PMC5996148
